The test system of this test is HMEC-1. The experiment in a line: Antiproliferative activity against human HMEC1 cells after 4 days by coulter counting method. Type of test: cell-based. The note with it: HMEC-1, 96 h. Summed up: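 HMEC-1 seeded at 20,000 cells/well; 5-fold compound dilutions added after 24 h; 4 days proliferation, trypsinized, Coulter counted. IC50 taken as concentration giving 50% reduction in cell proliferation.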

The structures appear in SMILES notation.

On to `COc1cc2c(c(OC)c1OC)-c1ccc(OC)c(=O)cc1[C@@H](NC(C)=O)CC2` [COLCHICINE], for which 3.8 nM corresponded to half-maximal inhibition (IC50).

For orientation: IC50 means the concentration that gives 50% inhibition.

For the origin of these results see ChEMBL document CHEMBL4196032, “Conformational mimetics of the α-methyl chalcone TUB091 binding tubulin: Design, synthesis and antiproliferative activity” (Eur J Med Chem, 2018).
